# Assay results published in patent US4551273A, “Analgesic peptide and process for the preparation thereof” (Eisai Co., Ltd., priority 1983, dated 1985).
# Assays:
# mouse vas deferens = assay: Assay with mouse vas deferens (inhibition of electrically stimulated contraction); set-up: species or system isolated tissue; details: concentration required to decrease electrically stimulated contraction to 50%, read-out: IC50, Method (B)
# Method: (B) Assay with mouse vas deferens
# This assay was carried out according to the method reported by Hughes et al. A mature male mouse was decapitated and phlebotomized. Then it was immediately subjected to an abdominal operation to take out its right and left vas deferens. Sperm clogged in the ducts was forced out with a pincette in Ringer's solution and both ends of the two ducts were united with a string to form a ring. Then it was stimulated electrically (0.1 Hz, 1 ms, 90 V) in the same manner as described in (A).
# Hughes H. W., Kosterlitz H. W., Leslie F. M.: Br. J. Pharmacol., 53, 371 (1975).
# [1] = test system: guinea pig longitudinal muscle of ileum; assay: Assay with guinea pig longitudinal muscle of ileum (inhibition of electrically stimulated contraction); format: tissue-based; details: Cavia porcellus, concentration required to decrease electrically stimulated contraction to 50%, read-out: IC50, Method (A)
# Method: (A) Assay with guinea pig longitudinal muscle of ileum
# This assay was carried out according to the method reported by H. W. Kosterlitz et al. A mature guinea pig was sacrificed by cutting its jugular and subjected to an abdominal operation to take out its ileum as a piece of 40 to 50 cm in length from a region 15 to 20 cm apart from the ileocecal region. Then it was immediately introduced into Ringer's solution and cut into 10 cm portions. The longitudinal muscle was peeled off from each piece by using a scalpel and an applicator, wound with a string and suspended in an isothermal glass cell of 6 ml in volume. Subsequently it was stimulated electrically (0.1 Hz, 0.5 ms, 80-90 V) with platinum electrodes fitted at the upper and lower sides of the cell to record the resulting contractions through a transducer.
# H. W. Kosterlitz, A. A. Waterfield: Annu. Rev. Pharmacol., 15, 29 (1975).
structure (smiles),measurement,setting,value
CN1CC[C@]23c4c5ccc(O)c4O[C@H]2[C@@H](O)C=C[C@H]3[C@H]1C5 [Morphine],IC50,mouse vas deferens,1070 ± 489 nM
same,IC50,[1],94 ± 36 nM
